{"source": "patent US12414947B2", "about": "“Use of FGFR inhibitors for treatment of idiopathic short stature” (CEDARS-SINAI MEDICAL CENTER, priority 2019, dated 2025)", "key": {"[1]": {"system": "AKT signaling in osteogenic cells derived from hMSC", "details": "200 nM, 30 min pretreatment; IGF-I 100 ng/ml for 0.5 h; serum free media", "description": "(§1) In vitro assays, with read-outs: signaling (pERK, pAKT), proliferation/survival assays (WST-1)."}, "[2]": {"system": "pERK1/2 and pAKT signaling in Patient normal fibroblast cells", "description": "FIG. 4 depicts signaling effects. […] Test working hypothesis using Patient's normal fibroblast cells as the model system. Fibroblasts, grown in αMEM+15% FBS till ˜80% confluency, were serum-starve for 18 hr in αMEM+0.1% BSA.\nas §1"}}}
{"smiles": "COc1cc(OC)cc(N(CCNC(C)C)c2ccc3ncc(-c4cnn(C)c4)nc3c2)c1", "note": "[Erdafitinib, erdafitinib]", "values": [{"measurement": "AKT signaling inhibition and effect of IGF-I", "setting": "[1]", "result": "reversed by IGF-I"}, {"measurement": "background activated pERK1/2 and pAKT signaling", "setting": "[2]; 100 nM-300 nM, serum-starved, 30 min pre-treatment, lysates 2 hr post-treatment", "result": "strongly suppressed"}, {"measurement": "reversal of signaling inhibition by growth factors", "setting": "[2]; IGF-I 100 ng/ml, FGF2 40 ng/ml, IGF-2 100 ng/ml", "result": "partially reversed by IGF-I and IGF2 but not by FGF2"}, {"measurement": "pAKT activated by IGF-I and IGF-2", "setting": "[2]; all concentrations of erdafitinib (0-300 nM)", "result": "remains activated"}]}
